No constants are given. Whether binding was seen depends on the method and setting. In cells and extracts the contact can be indirect.

Protein sequences, listed by entry. Tags and fused reporters are not part of them.
UniProt Q01995: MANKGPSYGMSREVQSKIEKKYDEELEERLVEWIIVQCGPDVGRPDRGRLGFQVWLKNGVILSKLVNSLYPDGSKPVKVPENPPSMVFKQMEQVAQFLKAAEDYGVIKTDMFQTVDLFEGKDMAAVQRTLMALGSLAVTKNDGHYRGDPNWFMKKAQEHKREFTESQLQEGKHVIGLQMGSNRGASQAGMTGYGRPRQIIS

The target of the assay is T1, zinc finger E-box binding homeobox 1 (ZEB1) (human (endogenous in HSFs)) (UniProt P37275).
T1 sequence: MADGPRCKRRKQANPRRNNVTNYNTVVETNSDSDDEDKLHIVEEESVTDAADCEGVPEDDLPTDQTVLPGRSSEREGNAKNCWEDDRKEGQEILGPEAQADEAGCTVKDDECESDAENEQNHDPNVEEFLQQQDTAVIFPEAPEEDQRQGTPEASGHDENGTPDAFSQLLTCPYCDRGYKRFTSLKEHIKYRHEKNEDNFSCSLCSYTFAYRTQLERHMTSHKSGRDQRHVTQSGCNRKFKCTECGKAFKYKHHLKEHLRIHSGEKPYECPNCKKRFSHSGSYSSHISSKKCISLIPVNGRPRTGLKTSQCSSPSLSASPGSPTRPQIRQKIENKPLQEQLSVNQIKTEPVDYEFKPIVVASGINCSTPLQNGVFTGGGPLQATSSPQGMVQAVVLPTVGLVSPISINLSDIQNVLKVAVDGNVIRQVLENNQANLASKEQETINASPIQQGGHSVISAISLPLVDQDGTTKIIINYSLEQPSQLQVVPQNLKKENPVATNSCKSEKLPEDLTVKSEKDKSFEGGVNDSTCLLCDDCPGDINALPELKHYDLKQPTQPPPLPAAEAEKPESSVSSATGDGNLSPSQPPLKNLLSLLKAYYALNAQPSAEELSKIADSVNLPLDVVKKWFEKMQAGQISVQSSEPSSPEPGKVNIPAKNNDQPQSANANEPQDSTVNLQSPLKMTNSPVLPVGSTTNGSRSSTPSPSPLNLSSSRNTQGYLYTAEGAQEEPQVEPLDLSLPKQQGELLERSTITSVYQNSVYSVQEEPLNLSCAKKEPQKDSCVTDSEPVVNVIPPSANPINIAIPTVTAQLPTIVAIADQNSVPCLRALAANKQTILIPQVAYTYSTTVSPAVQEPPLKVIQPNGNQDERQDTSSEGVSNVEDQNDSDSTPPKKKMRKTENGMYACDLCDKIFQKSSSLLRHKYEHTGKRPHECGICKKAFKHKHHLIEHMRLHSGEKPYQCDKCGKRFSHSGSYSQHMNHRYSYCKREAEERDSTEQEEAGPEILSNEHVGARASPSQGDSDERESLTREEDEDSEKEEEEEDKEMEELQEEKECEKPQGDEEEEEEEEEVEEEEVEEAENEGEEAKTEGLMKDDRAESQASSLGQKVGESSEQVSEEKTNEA
The assay can be described thus: co-IP; whole-cell lysates from HSFs immunoprecipitated and immunoblotted with antibodies against the indicated proteins (endogenous).

In the case of “transgelin (TAGLN) (from UniProt Q01995 1-201)”, the binding result is given as “no binding”.

The values are drawn from PMC10163745.
